Some results were stated once for a whole list of compounds, not compound by compound.
Target: human mTOR enzyme (Homo sapiens, UniProt P42345)
Assay: mTOR Kinase Assay
Type: biochemical
Details: 5 μM ATP, 0.1 μM GST-S6K
Experimental: The mTOR assay buffer contained 10 mM hepes (pH 7.4), 50 mM NaCl, 100 μg/ml BSA, 50 mM β-glycerophosphate, 10 mM MnCl2 and 0.5 mM DTT. 20 ng of human mTOR enzyme was preincubated with the compound for 10 minutes. 5 μM ATP and 0.1 μM GST-S6K was added. The reaction was incubated for one hour at 30° C. Anti phospho p70-S6K (about 1.7 ng/well) and anti GST-XL665 (1:1 Ratio with the substrate GST-56K) were added after incubating. The plates were read at least 2 hours after adding the anti phospho p70-S6K and the anti GST-XL665.
IC50 DETERMINATIONS: Dose-response curves were plotted from the inhibition data generated, each in duplicate, from 8 point serial dilutions of inhibitory compounds. Concentration of compound was plotted against % kinase activity, calculated by CPM of treated samples divided by CPM of untreated samples. To generate IC50 values, the dose-response curves were then fitted to a standard sigmoidal curve and IC50 values were derived by nonlinear regression analysis.

IC50, < 100 nM:
C[C@@H](O)C(=O)N1CCC(Cc2nc3c(-c4ccc(-c5ccccc5)nc4)cnn3c3[nH]ccc23)CC1 [Compound 33, (R)-2-hydroxy-1-(4-((3-(6-phenylpyridin-3-yl)-8H-pyrazolo[1,5-a]pyrrolo[3,2-e]pyrimidin-5-yl)methyl)piperidin-1-yl)propan-1-one]
Cc1n[nH]c2c1c(CNC1CCOCC1)nc1c(-c3cnc4ccccc4c3)cnn12 [Compound 26, N-((3-methyl-6-(quinolin-3-yl)-1H-dipyrazolo[1,5-a:4′,3′-e]pyrimidin-4-yl)methyl)tetrahydro-2H-pyran-4-amine]
Cc1n[nH]c2c1c(C1CCS(=O)(=O)CC1)nc1c(-c3ccc(-c4cccnc4)nc3)cnn12 [Compound 19]
O=C([C@H](O)CO)N1CCC(c2nc3c(-c4ccc(-c5ccccc5)nc4)cnn3c3[nH]ccc23)CC1 [Compound 24, (R)-2,3-dihydroxy-1-(4-(3-(6-phenylpyridin-3-yl)-8H-pyrazolo[1,5-a]pyrrolo[3,2-e]pyrimidin-5-yl)piperidin-1-yl)propan-1-one]
CS(=O)(=O)N1CCC(c2nc3c(-c4ccc(-c5ccccc5)nc4)cnn3c3[nH]ccc23)C1 (stereo not drawn) [Compound 27, 5-(1-(methylsulfonyl)pyrrolidin-3-yl)-3-(6-phenylpyridin-3-yl)-8H-pyrazolo[1,5-a]pyrrolo[3,2-e]pyrimidine]
Cc1n[nH]c2c1c(CC1CCC(C)(C(=O)O)CC1)nc1c(-c3ccc(-c4cccnc4)nc3)cnn12 (stereo not drawn) [Compound 2]
C[C@@H](O)C(=O)N1CCC(Oc2nc3c(-c4ccc(-c5ccccc5)nc4)cnn3c3[nH]ccc23)CC1 [Compound 35, (R)-2-hydroxy-1-(4-(3-(6-phenylpyridin-3-yl)-8H-pyrazolo[1,5-a]pyrrolo[3,2-e]pyrimidin-5-yloxy)piperidin-1-yl)propan-1-one]
C[C@@H](O)C(=O)N1CCC(c2nc3c(-c4ccc(-c5ccccc5)nc4)cnn3c3[nH]cc(Cl)c23)CC1 [Compound 34, (R)-1-(4-(6-chloro-3-(6-phenylpyridin-3-yl)-8H-pyrazolo[1,5-a]pyrrolo[3,2-e]pyrimidin-5-yl)piperidin-1-yl)-2-hydroxypropan-1-one]
Cc1n[nH]c2c1c(C1CCS(=O)(=O)CC1)nc1c(-c3cnc4ccc(F)cc4c3)cnn12 [Compound 21]
O=S1(=O)CCC(c2nc3c(-c4ccc(-c5ccccc5)nc4)cnn3c3[nH]ncc23)CC1 [Compound 15]
Cc1n[nH]c2c1c([C@H]1CC[C@H](C(=O)O)CC1)nc1c(-c3cnc4ccccc4c3)cnn12 [Compound 7]
O=S1(=O)CCC(c2nc3c(-c4ccc(-c5cccnc5)nc4)cnn3c3[nH]ncc23)CC1 [Compound 10]
Cc1n[nH]c2c1c(C1CCS(=O)(=O)CC1)nc1c(-c3ccc(-c4ccccc4)nc3)cnn12 [Compound 20]
O=S1(=O)CCN(c2nc3c(-c4cnc5ccccc5c4)cnn3c3[nH]ccc23)CC1 [Compound 13]
C[C@@H](O)C(=O)N1CCC(c2nc3c(-c4ccc(-c5ccccc5)nc4)cnn3c3[nH]ccc23)CC1 [Compound 25, (R)-2-hydroxy-1-(4-(3-(6-phenylpyridin-3-yl)-8H-pyrazolo[1,5-a]pyrrolo[3,2-e]pyrimidin-5-yl)piperidin-1-yl)propan-1-one]
CC1(C(=O)O)CC=C(c2nc3c(-c4ccc(-c5ccccc5)nc4)cnn3c3[nH]ccc23)CC1 (stereo not drawn) [Compound 28]
O=S1(=O)CCC(c2nc3c(-c4cnc5ccc(F)cc5c4)cnn3c3[nH]ccc23)CC1 [Compound 12]
O=S1(=O)CCC(c2nc3c(-c4cnc5ccc(F)cc5c4)cnn3c3[nH]cc(Cl)c23)CC1 [Compound 31]
O=C(O)CC1CCC(c2nc3c(-c4ccc(-c5ccccc5)nc4)cnn3c3[nH]ccc23)CC1 (mixture of isomers) [Compound 29]
Cc1n[nH]c2c1c(CC1CCC(C)(C(=O)O)CC1)nc1c(-c3ccc(-c4ccccc4)nc3)cnn12 (stereo not drawn) [Compound 3, 1-methyl-4-((3-methyl-6-(6-phenylpyridin-3-yl)-1H-dipyrazolo[1,5-a:4′,3′-e]pyrimidin-4-yl)methyl)cyclohexanecarboxylic acid]
O=S1(=O)CCC(c2nc3c(-c4cnc5ccccc5c4)cnn3c3[nH]ccc23)CC1 [Compound 11]
Cc1n[nH]c2c1c(CC1CCC(C)(C(=O)O)CC1)nc1c(-c3ccc(-c4cnn(C)c4)nc3)cnn12 (stereo not drawn) [Compound 4]
Cc1n[nH]c2c1c(C1CCN(C(=O)[C@@H](C)O)CC1)nc1c(-c3ccc(-c4ccccc4)nc3)cnn12 [Compound 30, (R)-2-hydroxy-1-(4-(3-methyl-6-(6-phenylpyridin-3-yl)-1H-dipyrazolo[1,5-a:4′,3′-e]pyrimidin-4-yl)piperidin-1-yl)propan-1-one]
Cc1n[nH]c2c1c(C1CCS(=O)(=O)CC1)nc1c(-c3cnc4ccccc4c3)cnn12 [Compound 1, 3-(Quinolin-3-yl)-5-(1,1-dioxo-tetrahydro-2H-thiopyran-4-yl)-6-methyl-dipyrazolo[1,5-a:4′,3′-e]pyrimidine]
CCc1n[nH]c2c1c(N1CCS(=O)(=O)CC1)nc1c(-c3cnc4ccccc4c3)cnn12 [Compound 17]
Cc1n[nH]c2c1c(CC1CCC(C(=O)O)CC1)nc1c(-c3ccc(-c4ccccc4)nc3)cnn12 (stereo not drawn) [Compound 5, 4-((3-methyl-6-(6-phenylpyridin-3-yl)-1H-dipyrazolo[1,5-a:4′,3′-e]pyrimidin-4-yl)methyl)cyclohexanecarboxylic acid]
O=S1(=O)CCC(c2nc3c(-c4cnc5ccc(F)cc5c4)cnn3c3[nH]ncc23)CC1 [Compound 16]
Cc1n[nH]c2c1c(CC1CCC(C(=O)O)CC1)nc1c(-c3ccc(-c4cnn(C)c4)nc3)cnn12 (stereo not drawn) [Compound 6, 4-((3-methyl-6-(6-(1-methyl-1H-pyrazol-4-yl)pyridin-3-yl)-1H-dipyrazolo[1,5-a:4′,3′-e]pyrimidin-4-yl)methyl)cyclohexanecarboxylic acid]
Cc1n[nH]c2c1c([C@H]1CC[C@H](C(=O)O)CC1)nc1c(-c3ccc(-c4ccccc4)nc3)cnn12 [Compound 8, (1R,4R)-4-(3-methyl-6-(6-phenylpyridin-3-yl)-1H-dipyrazolo[1,5-a:4′,3′-e]pyrimidin-4-yl)cyclohexanecarboxylic acid]
O=C(O)[C@H]1CC[C@H](c2nc3c(-c4ccc(-c5ccccc5)nc4)cnn3c3[nH]ccc32)CC1 [Compound 23, (trans)-4-(3-(6-phenylpyridin-3-yl)-8H-pyrazolo[1,5-a]pyrrolo[3,2-e]pyrimidin-5-yl)cyclohexanecarboxylic acid]
Cc1n[nH]c2c1c(C1CCC(CC(=O)O)CC1)nc1c(-c3ccc(-c4ccccc4)nc3)cnn12 (stereo not drawn) [Compound 22, 2-(4-(3-methyl-6-(6-phenylpyridin-3-yl)-1H-dipyrazolo[1,5-a:4′,3′-e]pyrimidin-4-yl)cyclohexyl)acetic acid]
O=S1(=O)CCC(c2nc3c(-c4ccc(-c5ccccc5)nc4)cnn3c3[nH]cc(Cl)c23)CC1 [Compound 32]
O=S1(=O)CCC(c2nc3c(-c4ccc(-c5ccccc5)nc4)cnn3c3[nH]ccc23)CC1 [Compound 9]

— patent US8609675B2, “Fused Tricyclic Compounds as novel mTOR inhibitors” (Merck Sharp & Dohme Corp., priority 2009, dated 2013)
